No constants are given. Whether binding was seen depends on the method and setting. Some results given as binding are weak or reduced against the parent protein; the word gives no strength.

B1: P54AR4-83v2 S30C, NEM conjugate (designed binder, not shown: small tags and cut ends)
chain: LPAPKNLVVSEVTEDSARLSWDDPWAFYECFLIQYQESEKVGEAIVLTVPGSERSYDLTGLKPGTEYTVSIYGVHNVYKDTNMRGLPLSAIFTT
modifications: N-ethyl maleimide (NEM) on Cys 30
B2: P54AR4-83v2 A90C, NEM conjugate (designed binder, not shown: small tags and cut ends)
chain: LPAPKNLVVSEVTEDSARLSWDDPWAFYESFLIQYQESEKVGEAIVLTVPGSERSYDLTGLKPGTEYTVSIYGVHNVYKDTNMRGLPLSCIFTT
modifications: N-ethyl maleimide (NEM) on Cys 90
B3: P54AR4-83v2 Q34C, NEM conjugate (designed binder, not shown: small tags and cut ends)
chain: LPAPKNLVVSEVTEDSARLSWDDPWAFYESFLICYQESEKVGEAIVLTVPGSERSYDLTGLKPGTEYTVSIYGVHNVYKDTNMRGLPLSAIFTT
modifications: N-ethyl maleimide (NEM) on Cys 34
B4: P54AR4-83v2 T59C, NEM conjugate (designed binder, not shown: small tags and cut ends)
chain: LPAPKNLVVSEVTEDSARLSWDDPWAFYESFLIQYQESEKVGEAIVLTVPGSERSYDLCGLKPGTEYTVSIYGVHNVYKDTNMRGLPLSAIFTT
modifications: N-ethyl maleimide (NEM) on Cys 59
B5: P54AR4-83v2 S70C, NEM conjugate (designed binder, not shown: small tags and cut ends)
chain: LPAPKNLVVSEVTEDSARLSWDDPWAFYESFLIQYQESEKVGEAIVLTVPGSERSYDLTGLKPGTEYTVCIYGVHNVYKDTNMRGLPLSAIFTT
modifications: N-ethyl maleimide (NEM) on Cys 70
B6: P54AR4-83v2 I91C, NEM conjugate (designed binder, not shown: small tags and cut ends)
chain: LPAPKNLVVSEVTEDSARLSWDDPWAFYESFLIQYQESEKVGEAIVLTVPGSERSYDLTGLKPGTEYTVSIYGVHNVYKDTNMRGLPLSACFTT
modifications: N-ethyl maleimide (NEM) on Cys 91
B7: P54AR4-83v2 N6C, NEM conjugate (designed binder, not shown: small tags and cut ends)
chain: LPAPKCLVVSEVTEDSARLSWDDPWAFYESFLIQYQESEKVGEAIVLTVPGSERSYDLTGLKPGTEYTVSIYGVHNVYKDTNMRGLPLSAIFTT
modifications: N-ethyl maleimide (NEM) on Cys 6
B8: P54AR4-83v2 T93C, NEM conjugate (designed binder, not shown: small tags and cut ends)
chain: LPAPKNLVVSEVTEDSARLSWDDPWAFYESFLIQYQESEKVGEAIVLTVPGSERSYDLTGLKPGTEYTVSIYGVHNVYKDTNMRGLPLSAIFCT
modifications: N-ethyl maleimide (NEM) on Cys 93
B9: P54AR4-83v2 I45C, NEM conjugate (designed binder, not shown: small tags and cut ends)
chain: LPAPKNLVVSEVTEDSARLSWDDPWAFYESFLIQYQESEKVGEACVLTVPGSERSYDLTGLKPGTEYTVSIYGVHNVYKDTNMRGLPLSAIFTT
modifications: N-ethyl maleimide (NEM) on Cys 45
B10: P54AR4-83v2 K40C, NEM conjugate (designed binder, not shown: small tags and cut ends)
chain: LPAPKNLVVSEVTEDSARLSWDDPWAFYESFLIQYQESECVGEAIVLTVPGSERSYDLTGLKPGTEYTVSIYGVHNVYKDTNMRGLPLSAIFTT
modifications: N-ethyl maleimide (NEM) on Cys 40
B11: P54AR4-83v2 E53C, NEM conjugate (designed binder, not shown: small tags and cut ends)
chain: LPAPKNLVVSEVTEDSARLSWDDPWAFYESFLIQYQESEKVGEAIVLTVPGSCRSYDLTGLKPGTEYTVSIYGVHNVYKDTNMRGLPLSAIFTT
modifications: N-ethyl maleimide (NEM) on Cys 53
B12: P54AR4-83v2 D15C, NEM conjugate (designed binder, not shown: small tags and cut ends)
chain: LPAPKNLVVSEVTECSARLSWDDPWAFYESFLIQYQESEKVGEAIVLTVPGSERSYDLTGLKPGTEYTVSIYGVHNVYKDTNMRGLPLSAIFTT
modifications: N-ethyl maleimide (NEM) on Cys 15
B13: P54AR4-83v2 K62C, NEM conjugate (designed binder, not shown: small tags and cut ends)
chain: LPAPKNLVVSEVTEDSARLSWDDPWAFYESFLIQYQESEKVGEAIVLTVPGSERSYDLTGLCPGTEYTVSIYGVHNVYKDTNMRGLPLSAIFTT
modifications: N-ethyl maleimide (NEM) on Cys 62
B14: P54AR4-83v2 R54C, NEM conjugate (designed binder, not shown: small tags and cut ends)
chain: LPAPKNLVVSEVTEDSARLSWDDPWAFYESFLIQYQESEKVGEAIVLTVPGSECSYDLTGLKPGTEYTVSIYGVHNVYKDTNMRGLPLSAIFTT
modifications: N-ethyl maleimide (NEM) on Cys 54
B15: P54AR4-83v2 S89C, NEM conjugate (designed binder, not shown: small tags and cut ends)
chain: LPAPKNLVVSEVTEDSARLSWDDPWAFYESFLIQYQESEKVGEAIVLTVPGSERSYDLTGLKPGTEYTVSIYGVHNVYKDTNMRGLPLCAIFTT
modifications: N-ethyl maleimide (NEM) on Cys 89
B16: P54AR4-83v2 L47C, NEM conjugate (designed binder, not shown: small tags and cut ends)
chain: LPAPKNLVVSEVTEDSARLSWDDPWAFYESFLIQYQESEKVGEAIVCTVPGSERSYDLTGLKPGTEYTVSIYGVHNVYKDTNMRGLPLSAIFTT
modifications: N-ethyl maleimide (NEM) on Cys 47
B17: P54AR4-83v2 G60C, NEM conjugate (designed binder, not shown: small tags and cut ends)
chain: LPAPKNLVVSEVTEDSARLSWDDPWAFYESFLIQYQESEKVGEAIVLTVPGSERSYDLTCLKPGTEYTVSIYGVHNVYKDTNMRGLPLSAIFTT
modifications: N-ethyl maleimide (NEM) on Cys 60
B18: P54AR4-83v2 T68C, NEM conjugate (designed binder, not shown: small tags and cut ends)
chain: LPAPKNLVVSEVTEDSARLSWDDPWAFYESFLIQYQESEKVGEAIVLTVPGSERSYDLTGLKPGTEYCVSIYGVHNVYKDTNMRGLPLSAIFTT
modifications: N-ethyl maleimide (NEM) on Cys 68
B19: P54AR4-83v2 S16C, NEM conjugate (designed binder, not shown: small tags and cut ends)
chain: LPAPKNLVVSEVTEDCARLSWDDPWAFYESFLIQYQESEKVGEAIVLTVPGSERSYDLTGLKPGTEYTVSIYGVHNVYKDTNMRGLPLSAIFTT
modifications: N-ethyl maleimide (NEM) on Cys 16
B20: P54AR4-83v2 E11C, NEM conjugate (designed binder, not shown: small tags and cut ends)
chain: LPAPKNLVVSCVTEDSARLSWDDPWAFYESFLIQYQESEKVGEAIVLTVPGSERSYDLTGLKPGTEYTVSIYGVHNVYKDTNMRGLPLSAIFTT
modifications: N-ethyl maleimide (NEM) on Cys 11
B21: P54AR4-83v2 S38C, NEM conjugate (designed binder, not shown: small tags and cut ends)
chain: LPAPKNLVVSEVTEDSARLSWDDPWAFYESFLIQYQECEKVGEAIVLTVPGSERSYDLTGLKPGTEYTVSIYGVHNVYKDTNMRGLPLSAIFTT
modifications: N-ethyl maleimide (NEM) on Cys 38
B22: P54AR4-83v2 S20C, NEM conjugate (designed binder, not shown: small tags and cut ends)
chain: LPAPKNLVVSEVTEDSARLCWDDPWAFYESFLIQYQESEKVGEAIVLTVPGSERSYDLTGLKPGTEYTVSIYGVHNVYKDTNMRGLPLSAIFTT
modifications: N-ethyl maleimide (NEM) on Cys 20
B23: P54AR4-83v2 G64C, NEM conjugate (designed binder, not shown: small tags and cut ends)
chain: LPAPKNLVVSEVTEDSARLSWDDPWAFYESFLIQYQESEKVGEAIVLTVPGSERSYDLTGLKPCTEYTVSIYGVHNVYKDTNMRGLPLSAIFTT
modifications: N-ethyl maleimide (NEM) on Cys 64
B24: P54AR4-83v2 V8C, NEM conjugate (designed binder, not shown: small tags and cut ends)
chain: LPAPKNLCVSEVTEDSARLSWDDPWAFYESFLIQYQESEKVGEAIVLTVPGSERSYDLTGLKPGTEYTVSIYGVHNVYKDTNMRGLPLSAIFTT
modifications: N-ethyl maleimide (NEM) on Cys 8
B25: P54AR4-83v2 V41C, NEM conjugate (designed binder, not shown: small tags and cut ends)
chain: LPAPKNLVVSEVTEDSARLSWDDPWAFYESFLIQYQESEKCGEAIVLTVPGSERSYDLTGLKPGTEYTVSIYGVHNVYKDTNMRGLPLSAIFTT
modifications: N-ethyl maleimide (NEM) on Cys 41
B26: P54AR4-83v2 E14C, NEM conjugate (designed binder, not shown: small tags and cut ends)
chain: LPAPKNLVVSEVTCDSARLSWDDPWAFYESFLIQYQESEKVGEAIVLTVPGSERSYDLTGLKPGTEYTVSIYGVHNVYKDTNMRGLPLSAIFTT
modifications: N-ethyl maleimide (NEM) on Cys 14
B27: P54AR4-83v2 S10C, NEM conjugate (designed binder, not shown: small tags and cut ends)
chain: LPAPKNLVVCEVTEDSARLSWDDPWAFYESFLIQYQESEKVGEAIVLTVPGSERSYDLTGLKPGTEYTVSIYGVHNVYKDTNMRGLPLSAIFTT
modifications: N-ethyl maleimide (NEM) on Cys 10
B28: P54AR4-83v2 L88C, NEM conjugate (designed binder, not shown: small tags and cut ends)
chain: LPAPKNLVVSEVTEDSARLSWDDPWAFYESFLIQYQESEKVGEAIVLTVPGSERSYDLTGLKPGTEYTVSIYGVHNVYKDTNMRGLPCSAIFTT
modifications: N-ethyl maleimide (NEM) on Cys 88
B29: P54AR4-83v2 T48C, NEM conjugate (designed binder, not shown: small tags and cut ends)
chain: LPAPKNLVVSEVTEDSARLSWDDPWAFYESFLIQYQESEKVGEAIVLCVPGSERSYDLTGLKPGTEYTVSIYGVHNVYKDTNMRGLPLSAIFTT
modifications: N-ethyl maleimide (NEM) on Cys 48
B30: P54AR4-83v2 A3C, NEM conjugate (designed binder, not shown: small tags and cut ends)
chain: LPCPKNLVVSEVTEDSARLSWDDPWAFYESFLIQYQESEKVGEAIVLTVPGSERSYDLTGLKPGTEYTVSIYGVHNVYKDTNMRGLPLSAIFTT
modifications: N-ethyl maleimide (NEM) on Cys 3
B31: P54AR4-83v2 L7C, NEM conjugate (designed binder, not shown: small tags and cut ends)
chain: LPAPKNCVVSEVTEDSARLSWDDPWAFYESFLIQYQESEKVGEAIVLTVPGSERSYDLTGLKPGTEYTVSIYGVHNVYKDTNMRGLPLSAIFTT
modifications: N-ethyl maleimide (NEM) on Cys 7
B32: P54AR4-83v2 W25C, NEM conjugate (designed binder, not shown: small tags and cut ends)
chain: LPAPKNLVVSEVTEDSARLSWDDPCAFYESFLIQYQESEKVGEAIVLTVPGSERSYDLTGLKPGTEYTVSIYGVHNVYKDTNMRGLPLSAIFTT
modifications: N-ethyl maleimide (NEM) on Cys 25
B33: P54AR4-83v2 Y78C, NEM conjugate (designed binder, not shown: small tags and cut ends)
chain: LPAPKNLVVSEVTEDSARLSWDDPWAFYESFLIQYQESEKVGEAIVLTVPGSERSYDLTGLKPGTEYTVSIYGVHNVCKDTNMRGLPLSAIFTT
modifications: N-ethyl maleimide (NEM) on Cys 78
B34: P54AR4-83v2 N82C, NEM conjugate (designed binder, not shown: small tags and cut ends)
chain: LPAPKNLVVSEVTEDSARLSWDDPWAFYESFLIQYQESEKVGEAIVLTVPGSERSYDLTGLKPGTEYTVSIYGVHNVYKDTCMRGLPLSAIFTT
modifications: N-ethyl maleimide (NEM) on Cys 82
B35: P54AR4-83v2 K5C, NEM conjugate (designed binder, not shown: small tags and cut ends)
chain: LPAPCNLVVSEVTEDSARLSWDDPWAFYESFLIQYQESEKVGEAIVLTVPGSERSYDLTGLKPGTEYTVSIYGVHNVYKDTNMRGLPLSAIFTT
modifications: N-ethyl maleimide (NEM) on Cys 5
B36: P54AR4-83v2 T81C, NEM conjugate (designed binder, not shown: small tags and cut ends)
chain: LPAPKNLVVSEVTEDSARLSWDDPWAFYESFLIQYQESEKVGEAIVLTVPGSERSYDLTGLKPGTEYTVSIYGVHNVYKDCNMRGLPLSAIFTT
modifications: N-ethyl maleimide (NEM) on Cys 81

The first experiment has as its target EGFR as used in the EGFR binding assay of Example 5 (human) (UniProt P00533). The experiment is described as follows: summary of the cysteine scan.
Consider B1, for which the binding entry is “binds”. With B2, the binding result is on record as “binds”.

For B3, the binding entry is “binds”. On the same count and under the same terms, then B4, with “binds”. As for B5, the binding result is on record as “binds”.

With B6, the binding result is given as “binds”. Same read-out and setting: then B7, with “binds”. In the case of B8, the binding result was “binds”. On the same count and under the same terms, then B9, with “binds”.

On to B10, for which the binding result was “binds”. Turning to B11, the binding result is “binds”.

In the case of B12, the binding result is “binds”. Still for that read-out and setting: then B13, with “binds”; and B14, with “binds”. In the case of B15, the binding result is reported as “binds”.

B16: the binding result was “binds”.

With B17, the binding result is recorded as “binds”. The same measure, in the same setting: then B18, with “binds”; and B19, with “binds”. The same measure, in the same setting: then B20, with “binds”; and B21, with “binds”; and B22, with “binds”.

For the molecule B23, the binding entry is recorded as “binds”. Same read-out and setting: then B24, with “binds”; and B25, with “binds”; and B26, with “binds”. Same read-out and setting: then B27, with “binds”; and B28, with “binds”. The same measure, in the same setting: then B29, with “binds”.

Another experiment shares this target. The experiment is described as follows: EGFR binding ELISA, NEM conjugate. In general terms: In an ELISA, binding on a coated surface is turned into a signal by an enzyme label.
As to B30, the binding entry was “binds”. The same measure, in the same setting: then B31, with “binds”; and B32, with “binds”. B33: the binding entry is recorded as “binds”. The same measure, in the same setting: then B34, with “binds”. For the molecule B35, the binding entry is “binds”. Consider B36, for which the binding entry was “binds”.
